Patent US11592453B2, “Personalized metabolomic profiling of specialized pro-resolving mediators” (THE BRIGHAM AND WOMEN'S HOSPITAL, INC., priority 2016, dated 2023)

Experiment: LC-MS/MS LM metabololipidomics of human whole blood during coagulation
Details: for LM concentration, Coagulation t = 0 h, Avg / LM concentration, Coagulation t = 0.25 h, Avg / LM concentration, Coagulation t = 0.5 h, Avg / LM concentration, Coagulation t = 1 h, Avg / LM concentration, Coagulation t = 3 h, Avg / LM concentration, Coagulation t = 6 h, Avg / LM concentration, Coagulation t = 24 h, Avg: human whole blood, mean of 12 donors; for highest concentrations of SPMs generated within 24 hours of coagulation in blood: healthy donors

SMILES | LM concentration, Coagulation t = 0 h, Avg | LM concentration, Coagulation t = 0.25 h, Avg | LM concentration, Coagulation t = 0.5 h, Avg | LM concentration, Coagulation t = 1 h, Avg | LM concentration, Coagulation t = 3 h, Avg | LM concentration, Coagulation t = 6 h, Avg | LM concentration, Coagulation t = 24 h, Avg | highest concentrations of SPMs generated within 24 hours of coagulation in blood [pM]
CC/C=C\C[C@H](O)/C=C/C=C\C[C@@H](O)/C=C/C=C/C=C\[C@@H](O)CCC(=O)O [RvD3, Resolvin D3 (4S, 11R, 17S-trihydroxy-docosa-5Z, 7E, 9E, 13Z, 15E, 19Z-hexaenoic acid)] | — ((—) denotes concentrations < 0.1 pg/ml) | — ((—) denotes concentrations < 0.1 pg/ml) | — ((—) denotes concentrations < 0.1 pg/ml) | — ((—) denotes concentrations < 0.1 pg/ml) | — ((—) denotes concentrations < 0.1 pg/ml) | — ((—) denotes concentrations < 0.1 pg/ml) | — ((—) denotes concentrations < 0.1 pg/ml) | 
CCCCC/C=C\C/C=C\C/C=C\C/C=C\CCCC(=O)O [AA, arachidonic acid] | 23726.9 pg/mL | 25635.8 pg/mL | 24374.6 pg/mL | 30685.7 pg/mL | 41191.8 pg/mL | 39809.1 pg/mL | 46263.5 pg/mL | 
CCCCC/C=C\C[C@@H](O)/C=C/C=C/C=C\[C@@H](O)CCCC(=O)O [LTB4, leukotriene B4, (5S, 12R-dihydroxy-eicosa-6Z, 8E, 10E, 14Z-tetraenoic acid)] | 5.0 pg/mL | 14.1 pg/mL | 35.2 pg/mL | 106.2 pg/mL | 139.9 pg/mL | 115.4 pg/mL | 105.2 pg/mL | 
CC[C@@H](O)/C=C/C=C\C[C@@H](O)/C=C/C=C/C=C\[C@@H](O)CCCC(=O)O [RvE1, Resolvin E1 (5S, 12R, 18R-trihydroxy-eicosa-6Z, 8E, 10E, 14Z, 16E-pentaenoic acid)] | — ((—) denotes concentrations < 0.1 pg/ml) | — ((—) denotes concentrations < 0.1 pg/ml) | — ((—) denotes concentrations < 0.1 pg/ml) | 0.4 pg/mL | 2.7 pg/mL | 2.3 pg/mL | 5.1 pg/mL | 58
CC/C=C\C[C@H](O)/C=C/C=C\C=C\[C@@H](O)C/C=C\C/C=C\CCC(=O)O [10S,17S-diHDHA] | 1.3 pg/mL | 1.1 pg/mL | 0.8 pg/mL | 1.0 pg/mL | 2.4 pg/mL | 4.1 pg/mL | 7.9 pg/mL | 
CCCCC/C=C\C/C=C\C/C=C\C=C\[C@@H](O)CCCC(=O)O [5-HETE] | 487.6 pg/mL | 100.1 pg/mL | 103.2 pg/mL | 173.1 pg/mL | 258.5 pg/mL | 282.1 pg/mL | 436.6 pg/mL | 
CC/C=C\C/C=C\C/C=C\C/C=C\C=C\C(O)CCCC(=O)O (stereo not shown) [5-HEPE] | 20.7 pg/mL | 24.1 pg/mL | 19.3 pg/mL | 22.6 pg/mL | 48.5 pg/mL | 43.0 pg/mL | 75.0 pg/mL | 
CC/C=C\C/C=C\C[C@H](O)/C=C/C=C\C/C=C\C=C\[C@@H](O)CCC(=O)O [4S,14S-diHDHA] | 44.1 pg/mL | 25.4 pg/mL | 15.2 pg/mL | 14.3 pg/mL | 32.9 pg/mL | 60.2 pg/mL | 111.6 pg/mL | 
CCCCC[C@H](O)/C=C/[C@H]1[C@H](O)CC(=O)[C@@H]1C/C=C\CCCC(=O)O [PGE2, 9-oxo-11α, 15S-dihydroxy-prosta-5Z, 13E-dien-1-oic acid] | 2.2 pg/mL | 3.0 pg/mL | 22.1 pg/mL | 65.6 pg/mL | 83.8 pg/mL | 108.1 pg/mL | 1286.8 pg/mL | 
CCCCC[C@H](O)/C=C/[C@H]1OC(O)C[C@H](O)[C@@H]1C/C=C\CCCC(=O)O (stereo partly drawn) [TXB2, 9α, 11, 15S-trihydroxy-thromba-5Z, 13E-dien-1-oic acid] | 3.0 pg/mL | 87.2 pg/mL | 671.8 pg/mL | 1365.4 pg/mL | 1509.6 pg/mL | 1625.6 pg/mL | 1959.6 pg/mL | 
CC/C=C\C[C@H](O)/C=C/C=C\C=C\C=C\[C@@H](O)[C@@H](O)C/C=C\CCC(=O)O [RvD1, Resolvin D1 (7S, 8R, 17S-trihydroxy-docosa-4Z, 9E, 11E, 13Z, 15E, 19Z-hexaenoic acid)] | — ((—) denotes concentrations < 0.1 pg/ml) | — ((—) denotes concentrations < 0.1 pg/ml) | 0.4 pg/mL | 0.5 pg/mL | 3.0 pg/mL | 9.6 pg/mL | 57.8 pg/mL | 549
O=C(O)CCC[C@H](O)\C=C/C=C/C=C/[C@H](O)C/C=C\CCCCCO [20-OH-LTB4] | — ((—) denotes concentrations < 0.1 pg/ml) | 3.1 pg/mL | 8.0 pg/mL | 29.9 pg/mL | 51.3 pg/mL | 66.5 pg/mL | 47.0 pg/mL | 
CCCCC[C@@H](O)/C=C/C=C\C=C\C=C\[C@@H](O)[C@@H](O)CCCC(=O)O [AT-LX44, 15-epi-lipoxin A4 (aspirin-triggered lipoxin A4)] | 3.6 pg/mL | 6.5 pg/mL | 6.1 pg/mL | 8.1 pg/mL | 11.9 pg/mL | 16.3 pg/mL | 22.5 pg/mL | 
CCCCC[C@H](O)[C@H](O)/C=C/C=C/C=C\C=C\[C@@H](O)CCCC(=O)O [LXB4, lipoxin B4: (5S, 14R, 15S-trihydroxy-eicosa-6E, 8Z, 10E, 12E-tetraenoic acid)] | 1.1 pg/mL | 1.0 pg/mL | 0.9 pg/mL | 1.6 pg/mL | 3.8 pg/mL | 3.0 pg/mL | 29.6 pg/mL | 303
CCCCC/C=C\C[C@H](O)/C=C/C=C\C=C\[C@@H](O)CCCC(=O)O [5S,12S-diHETE] | 4.2 pg/mL | 5.9 pg/mL | 5.0 pg/mL | 10.8 pg/mL | 29.2 pg/mL | 36.7 pg/mL | 39.5 pg/mL | 
CCCCC/C=C\C[C@H](O)/C=C/C=C\C/C=C\CCCC(=O)O [12-HETE] | 2238.8 pg/mL | 3515.2 pg/mL | 4092.3 pg/mL | 6481.2 pg/mL | 14018.7 pg/mL | 15921.7 pg/mL | 16532.4 pg/mL | 
